Data from PMC9606288.
No constants are given. Whether binding was seen depends on the method and setting. In cells and extracts the contact can be indirect. Some entries that bind do so weakly or less than the wild type. For part of these data: Sequences can lack the tags named with a protein. Values belong to the substance of their own block, whether it stands above or below them.

The chains behind the UniProt entries cited, without tags or fusion partners.
UniProt P08588: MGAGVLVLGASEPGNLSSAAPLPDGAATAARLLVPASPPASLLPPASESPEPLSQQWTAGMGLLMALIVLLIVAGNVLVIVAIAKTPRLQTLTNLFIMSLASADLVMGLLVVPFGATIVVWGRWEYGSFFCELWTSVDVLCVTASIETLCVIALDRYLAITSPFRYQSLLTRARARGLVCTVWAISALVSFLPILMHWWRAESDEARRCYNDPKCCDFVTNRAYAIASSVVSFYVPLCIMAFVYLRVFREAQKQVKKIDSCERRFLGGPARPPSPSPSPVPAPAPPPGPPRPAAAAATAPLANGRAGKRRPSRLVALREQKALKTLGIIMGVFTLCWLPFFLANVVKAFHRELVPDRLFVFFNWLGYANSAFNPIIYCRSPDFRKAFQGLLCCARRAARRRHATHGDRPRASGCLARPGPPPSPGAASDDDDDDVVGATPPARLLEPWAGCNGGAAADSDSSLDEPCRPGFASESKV
UniProt P34971: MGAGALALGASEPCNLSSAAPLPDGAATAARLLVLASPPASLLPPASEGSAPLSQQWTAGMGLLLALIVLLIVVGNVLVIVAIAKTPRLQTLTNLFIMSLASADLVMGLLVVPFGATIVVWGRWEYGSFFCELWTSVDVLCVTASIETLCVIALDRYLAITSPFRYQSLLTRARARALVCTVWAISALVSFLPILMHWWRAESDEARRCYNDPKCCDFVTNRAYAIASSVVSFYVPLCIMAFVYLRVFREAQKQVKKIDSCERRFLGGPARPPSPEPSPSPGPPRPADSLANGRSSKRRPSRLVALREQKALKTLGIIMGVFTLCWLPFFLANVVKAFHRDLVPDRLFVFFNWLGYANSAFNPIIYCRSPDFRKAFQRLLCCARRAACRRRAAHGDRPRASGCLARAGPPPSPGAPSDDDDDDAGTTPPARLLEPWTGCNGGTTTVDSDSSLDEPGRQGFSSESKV
UniProt Q91YI4: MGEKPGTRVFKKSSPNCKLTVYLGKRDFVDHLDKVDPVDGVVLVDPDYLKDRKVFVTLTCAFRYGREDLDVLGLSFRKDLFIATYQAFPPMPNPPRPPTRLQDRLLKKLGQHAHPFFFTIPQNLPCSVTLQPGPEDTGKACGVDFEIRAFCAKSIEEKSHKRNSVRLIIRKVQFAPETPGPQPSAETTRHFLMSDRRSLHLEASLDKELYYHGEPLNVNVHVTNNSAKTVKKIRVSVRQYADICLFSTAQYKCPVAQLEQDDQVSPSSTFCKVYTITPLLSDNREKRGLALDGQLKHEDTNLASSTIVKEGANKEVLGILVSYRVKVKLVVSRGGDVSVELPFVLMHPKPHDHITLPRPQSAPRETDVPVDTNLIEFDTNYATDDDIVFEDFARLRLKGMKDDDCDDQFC
UniProt P63095: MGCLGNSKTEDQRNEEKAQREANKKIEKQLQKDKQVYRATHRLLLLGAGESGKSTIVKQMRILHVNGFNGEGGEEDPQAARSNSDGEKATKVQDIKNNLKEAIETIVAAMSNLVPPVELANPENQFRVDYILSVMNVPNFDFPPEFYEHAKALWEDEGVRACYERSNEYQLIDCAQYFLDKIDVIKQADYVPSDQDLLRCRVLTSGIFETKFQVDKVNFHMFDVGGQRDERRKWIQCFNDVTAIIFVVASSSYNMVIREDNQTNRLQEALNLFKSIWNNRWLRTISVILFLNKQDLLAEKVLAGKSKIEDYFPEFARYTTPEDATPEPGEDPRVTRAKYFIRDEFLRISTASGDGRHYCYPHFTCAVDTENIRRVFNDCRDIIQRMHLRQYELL
UniProt P18090: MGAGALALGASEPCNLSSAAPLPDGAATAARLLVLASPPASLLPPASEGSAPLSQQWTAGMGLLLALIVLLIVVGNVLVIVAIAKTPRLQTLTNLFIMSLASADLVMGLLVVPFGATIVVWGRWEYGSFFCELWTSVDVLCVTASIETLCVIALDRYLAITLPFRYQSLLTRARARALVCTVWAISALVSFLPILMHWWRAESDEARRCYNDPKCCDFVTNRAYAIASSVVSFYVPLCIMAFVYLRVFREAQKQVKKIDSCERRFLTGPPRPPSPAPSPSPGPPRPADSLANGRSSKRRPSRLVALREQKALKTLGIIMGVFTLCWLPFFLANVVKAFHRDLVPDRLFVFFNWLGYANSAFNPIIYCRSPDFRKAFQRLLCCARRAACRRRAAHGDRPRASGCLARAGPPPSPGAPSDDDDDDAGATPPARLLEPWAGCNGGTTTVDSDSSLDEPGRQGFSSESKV
UniProt P29067: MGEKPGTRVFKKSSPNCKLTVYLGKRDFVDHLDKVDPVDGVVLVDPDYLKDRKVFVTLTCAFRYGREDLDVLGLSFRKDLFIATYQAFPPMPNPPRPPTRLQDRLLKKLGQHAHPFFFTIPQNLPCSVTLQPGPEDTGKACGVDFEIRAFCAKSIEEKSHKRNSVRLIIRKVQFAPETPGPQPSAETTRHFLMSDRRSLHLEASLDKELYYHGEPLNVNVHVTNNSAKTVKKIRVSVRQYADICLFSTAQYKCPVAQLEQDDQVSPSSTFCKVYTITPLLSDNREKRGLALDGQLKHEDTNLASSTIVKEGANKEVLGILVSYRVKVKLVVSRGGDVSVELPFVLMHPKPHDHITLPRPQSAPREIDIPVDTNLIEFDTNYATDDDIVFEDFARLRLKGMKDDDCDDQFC

Assays:
FLAG-tagged TRPC6 = target: T1, FLAG-tagged TRPC6 (UniProt Q61143); test: co-IP; HEK293 cells expressing FLAG-TRPC6 and β1AR-EGFP; lysis in 1% Triton X-100, 140 mM NaCl, 1 mM EDTA, 20 mM Tris-HCl pH 7.4; FLAG M2 agarose 12 h; elution with FLAG peptide; western blot
T1 sequence: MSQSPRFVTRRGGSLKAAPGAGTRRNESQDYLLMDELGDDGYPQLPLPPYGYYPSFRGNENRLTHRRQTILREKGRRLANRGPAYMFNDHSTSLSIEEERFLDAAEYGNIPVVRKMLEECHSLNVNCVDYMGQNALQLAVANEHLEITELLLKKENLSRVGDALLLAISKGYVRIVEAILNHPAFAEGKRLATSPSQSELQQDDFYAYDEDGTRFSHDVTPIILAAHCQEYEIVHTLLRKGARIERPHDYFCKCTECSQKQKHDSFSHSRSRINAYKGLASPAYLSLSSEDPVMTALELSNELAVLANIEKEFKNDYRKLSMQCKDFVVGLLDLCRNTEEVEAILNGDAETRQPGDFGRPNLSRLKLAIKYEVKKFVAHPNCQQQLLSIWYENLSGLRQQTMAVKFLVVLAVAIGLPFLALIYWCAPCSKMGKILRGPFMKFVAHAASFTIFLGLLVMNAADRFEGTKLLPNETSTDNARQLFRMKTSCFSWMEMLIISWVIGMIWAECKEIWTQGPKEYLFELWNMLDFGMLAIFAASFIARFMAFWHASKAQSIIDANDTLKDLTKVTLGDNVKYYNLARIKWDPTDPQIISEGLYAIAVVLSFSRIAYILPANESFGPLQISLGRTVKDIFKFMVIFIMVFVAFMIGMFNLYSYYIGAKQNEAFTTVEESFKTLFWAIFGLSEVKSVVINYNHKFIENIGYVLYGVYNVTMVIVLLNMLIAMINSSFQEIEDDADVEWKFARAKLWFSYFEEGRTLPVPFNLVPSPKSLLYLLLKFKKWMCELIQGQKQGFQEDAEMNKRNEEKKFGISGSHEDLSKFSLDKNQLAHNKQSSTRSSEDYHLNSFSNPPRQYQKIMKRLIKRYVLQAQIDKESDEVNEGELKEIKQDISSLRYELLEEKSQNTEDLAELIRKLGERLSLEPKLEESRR

β1AR-Rluc [1] = target: β1AR-Rluc (UniProt P08588); test: FRET or BRET; BRET in HEK293 cells transfected with β1AR-Rluc and Gαs-YFP; NE stimulation, with or without Zn2+
[2] = target: T2, TRPC6 (transient receptor potential canonical 6), endogenous in mouse heart (mouse (endogenous in heart tissue and adult cardiomyocytes)) (UniProt Q61143); test: proximity ligation; Duolink PLA Fluorescence on fixed mouse heart cryosections (SAN, LV apex and base; with or without STZ) and isolated adult mouse cardiomyocytes (WT or TRPC6(-/-); with or without formamide); rabbit anti-β1AR with mouse anti-TRPC6 or anti-βArr2; puncta counted
T2 sequence: T1 sequence

[3] = target: T3, TRPC6, endogenous in neonatal rat cardiomyocytes (rat (endogenous in NRCMs)) (UniProt Q99N78); test: proximity ligation; PLA of TRPC6 and β1AR in neonatal rat cardiomyocytes with or without overexpression of the Snapin-PDZ-linker
T3 sequence: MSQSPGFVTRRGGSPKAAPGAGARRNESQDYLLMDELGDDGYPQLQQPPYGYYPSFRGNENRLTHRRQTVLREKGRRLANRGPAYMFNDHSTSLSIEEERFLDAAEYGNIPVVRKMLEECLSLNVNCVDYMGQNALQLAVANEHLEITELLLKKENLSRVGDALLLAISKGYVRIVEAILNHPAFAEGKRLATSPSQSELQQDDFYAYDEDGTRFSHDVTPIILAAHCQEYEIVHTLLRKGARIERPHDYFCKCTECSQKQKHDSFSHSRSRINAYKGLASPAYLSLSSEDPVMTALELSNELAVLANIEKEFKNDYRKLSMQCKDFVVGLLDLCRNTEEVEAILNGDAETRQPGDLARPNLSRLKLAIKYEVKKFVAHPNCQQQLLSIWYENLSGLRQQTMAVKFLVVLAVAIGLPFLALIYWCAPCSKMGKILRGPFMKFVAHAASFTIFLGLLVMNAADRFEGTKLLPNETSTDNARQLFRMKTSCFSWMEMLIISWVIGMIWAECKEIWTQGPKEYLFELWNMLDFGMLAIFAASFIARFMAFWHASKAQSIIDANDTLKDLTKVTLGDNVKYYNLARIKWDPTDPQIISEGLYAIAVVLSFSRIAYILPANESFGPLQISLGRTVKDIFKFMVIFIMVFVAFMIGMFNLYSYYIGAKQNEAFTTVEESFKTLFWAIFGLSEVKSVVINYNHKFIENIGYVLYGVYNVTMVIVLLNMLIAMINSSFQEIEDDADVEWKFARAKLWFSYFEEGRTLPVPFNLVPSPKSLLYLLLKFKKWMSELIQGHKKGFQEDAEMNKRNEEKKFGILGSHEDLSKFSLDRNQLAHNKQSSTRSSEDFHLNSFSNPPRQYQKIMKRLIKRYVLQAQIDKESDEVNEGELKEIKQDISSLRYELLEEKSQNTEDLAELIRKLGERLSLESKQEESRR

[4] = target: β1-adrenoceptor (β1AR), endogenous in mouse heart (mouse (endogenous in heart tissue and adult cardiomyocytes)) (UniProt P34971); test: proximity ligation; Duolink PLA Fluorescence on fixed mouse heart cryosections (SAN, LV apex and base; with or without STZ) and isolated adult mouse cardiomyocytes (WT or TRPC6(-/-); with or without formamide); rabbit anti-β1AR with mouse anti-TRPC6 or anti-βArr2; puncta counted
β1AR-Rluc [5] = target: β1AR-Rluc (UniProt P08588); test: FRET or BRET; BRET in HEK293 cells transfected with β1AR-Rluc and βArr2-YFP along with pCI-neo, TRPC6(WT), TRPC6(DN), TRPC6(KYD) or TRPC3 vectors; ISO 10 μM for 30 min; coelenterazine h 5 μM; with TPEN or EGTA in one panel

Substance: EGFP-fused β1AR (from UniProt P08588 1-477) (receptor)
- binding (FLAG-tagged TRPC6): binds

Substance: β1-adrenoceptor (β1AR), endogenous in mouse heart (from UniProt P34971 1-466) (receptor)
- binding [2]: binds

Substance: β-Arrestin 2 (βArr2), endogenous in adult mouse cardiomyocytes (from UniProt Q91YI4 1-410)
- binding [4]: binds

More lines, now with the values ahead:

- binding (β1AR-Rluc [1]): binds
Substance: Gαs-YFP (from UniProt P63095 1-394)

- binding [3]: binds
Substance: β1AR, endogenous in neonatal rat cardiomyocytes (from UniProt P18090 1-466) (receptor)

- binding (β1AR-Rluc [5]): binds
Substance: βArr2-YFP (from UniProt P29067 1-410)
